This passage reports binding results from paper PMC11388069.

Chains of the proteins cited; added tags and fusions are not shown.
UniProt P19474: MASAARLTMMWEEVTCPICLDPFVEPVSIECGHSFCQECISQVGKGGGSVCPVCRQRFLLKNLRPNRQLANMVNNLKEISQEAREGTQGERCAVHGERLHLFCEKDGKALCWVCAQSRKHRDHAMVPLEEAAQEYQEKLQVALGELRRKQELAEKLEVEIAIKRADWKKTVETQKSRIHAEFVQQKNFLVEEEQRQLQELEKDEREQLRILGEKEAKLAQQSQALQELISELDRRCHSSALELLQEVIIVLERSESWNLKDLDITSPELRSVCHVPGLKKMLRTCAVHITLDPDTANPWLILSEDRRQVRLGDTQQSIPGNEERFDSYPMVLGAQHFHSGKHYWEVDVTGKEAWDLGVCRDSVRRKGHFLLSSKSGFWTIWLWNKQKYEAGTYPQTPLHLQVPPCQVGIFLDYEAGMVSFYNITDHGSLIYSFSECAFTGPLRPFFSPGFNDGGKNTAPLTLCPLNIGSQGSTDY

No constants are given. Whether binding was seen depends on the method and setting. Binding seen in cells or lysates may run through a third protein. A yes stands for co-enrichment or nearness to the bait. Other partners may have been found. Tags and fused reporters may be left off the sequences shown.

This assay deals with T1, MGAT3 (N-acetylglucosaminyltransferase MGAT3) (human (endogenous in MDA-MB-231)) (UniProt Q09327).
T1 sequence: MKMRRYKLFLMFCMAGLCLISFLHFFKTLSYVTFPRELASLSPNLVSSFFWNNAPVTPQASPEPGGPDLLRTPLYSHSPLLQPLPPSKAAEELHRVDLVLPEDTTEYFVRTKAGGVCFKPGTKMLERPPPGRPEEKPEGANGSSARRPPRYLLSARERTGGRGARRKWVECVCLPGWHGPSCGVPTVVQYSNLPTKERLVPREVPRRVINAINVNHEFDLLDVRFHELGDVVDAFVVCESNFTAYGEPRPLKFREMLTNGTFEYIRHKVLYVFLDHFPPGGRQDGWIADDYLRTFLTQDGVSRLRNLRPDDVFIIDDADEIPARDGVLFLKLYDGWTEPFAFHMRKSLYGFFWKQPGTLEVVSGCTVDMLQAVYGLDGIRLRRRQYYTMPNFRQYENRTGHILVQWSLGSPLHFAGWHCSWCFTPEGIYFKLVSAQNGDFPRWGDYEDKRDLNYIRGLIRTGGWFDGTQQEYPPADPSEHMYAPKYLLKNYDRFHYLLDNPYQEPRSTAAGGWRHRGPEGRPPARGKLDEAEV
Kind of assay: affinity purification with mass spectrometry; Co-IP-MS of MGAT3 from lysates of MDA-MB-231 cells treated with/without DOX; immunoprecipitates separated by SDS-PAGE, in-gel digestion, LC-MS/MS.

Turning to “Trim21 (from UniProt P19474 1-475) (enzyme)”, the binding entry is given as “binds”.
